One experiment deals with T1, Mug174-GFP (S. pombe) (UniProt O74434).
T1 sequence: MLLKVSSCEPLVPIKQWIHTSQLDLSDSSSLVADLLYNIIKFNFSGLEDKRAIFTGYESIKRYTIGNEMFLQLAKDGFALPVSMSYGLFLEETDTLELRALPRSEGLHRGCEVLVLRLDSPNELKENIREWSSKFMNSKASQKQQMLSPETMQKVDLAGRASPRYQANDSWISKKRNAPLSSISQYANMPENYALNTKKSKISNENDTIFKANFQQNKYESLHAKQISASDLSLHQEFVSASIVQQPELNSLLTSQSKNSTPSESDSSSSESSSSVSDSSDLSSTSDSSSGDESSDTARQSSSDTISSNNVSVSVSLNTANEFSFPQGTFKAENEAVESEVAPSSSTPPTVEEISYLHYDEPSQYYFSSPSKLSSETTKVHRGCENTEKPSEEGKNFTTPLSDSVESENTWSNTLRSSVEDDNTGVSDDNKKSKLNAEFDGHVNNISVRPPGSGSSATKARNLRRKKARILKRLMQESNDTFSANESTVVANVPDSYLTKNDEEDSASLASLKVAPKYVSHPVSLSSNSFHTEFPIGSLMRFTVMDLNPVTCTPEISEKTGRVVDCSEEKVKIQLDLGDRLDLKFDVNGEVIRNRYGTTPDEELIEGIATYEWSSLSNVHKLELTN
The experiment is described as follows: co-IP; S. pombe lysate (10 mM Tris-HCl pH 7.5, 150 mM NaCl, 0.5 mM EDTA, 0.5% NP40, 2.5 mM MgCl2); anti-GFP beads, 4°C, 2 h; western blot with anti-GFP or anti-myc.

For experiment [1], the target named is T2, Tgs1 (trimethylguanosine synthase) fused to the GAL4 binding domain (S. pombe) (UniProt Q09814).
T2 sequence: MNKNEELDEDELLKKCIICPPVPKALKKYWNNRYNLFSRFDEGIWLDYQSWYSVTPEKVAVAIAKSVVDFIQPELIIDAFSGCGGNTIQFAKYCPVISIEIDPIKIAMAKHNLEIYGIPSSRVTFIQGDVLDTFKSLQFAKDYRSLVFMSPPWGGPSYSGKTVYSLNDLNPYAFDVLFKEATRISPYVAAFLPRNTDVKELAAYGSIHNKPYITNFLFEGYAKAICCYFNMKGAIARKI
The experiment is described as follows: two-hybrid; GAL4 system in S. cerevisiae AH109; Mug174 on the GAL4 activation domain, Tgs1 on the GAL4 binding domain; growth on SD-Leu-Trp-His-Ade (most stringent), 30°C, 3 days.

No constants are given. Whether binding was seen depends on the method and setting. For some assays here: Binding seen in cells or lysates may run through a third protein. Some binding calls cover weakened binding; strength is not graded here. Sequences can lack the tags named with a protein.

B1: Tgs1-myc (enzyme, UniProt Q09814 1-239)
chain: T2 sequence
In the case of B1, the binding entry with Mug174-GFP (S. pombe) is “binds”.

B2: Mug174 (Meiosis-upregulated gene 174) fused to the GAL4 activation domain (protein, UniProt O74434 1-626)
chain: T1 sequence
As to B2, in experiment [1], the binding result is “binds”.

(Values after article PMC11347179.)
